Some results were stated once for a whole list of compounds, not compound by compound. At least one compound was matched to its structure with a doubt left. Some ranges recur; such a range may be that of the whole group of compounds.
Test system: Swiss-Webster mice
Conditions: mouse, in vivo

NC(CCC(=O)O)C(=O)O (racemic) [glutamic acid, dl-glutamic acid]
duration of hyperalgesia evoked by acute relatively low dose, agent alone: 4 to 5 h

CC(C)Cn1c(=O)n(C)c(=O)c2[nH]cnc21 [IBMX, 3-isobutyl-1-methylxanthine]
duration of hyperalgesia evoked by acute relatively low dose, agent alone: 4 to 5 h

CN[C@H](CC(=O)O)C(=O)O [NMDA, N-methyl-D-aspartate]
duration of hyperalgesia evoked by acute relatively low dose, agent alone: 4 to 5 h

O=C1CC[C@@]2(O)[C@H]3Cc4ccc(O)c5c4[C@@]2(CCN3CC2CC2)[C@H]1O5 [NTX, naltrexone]
duration of analgesia, cotreatment with 1 mg/kg NMDA: 5 to 6 h

Oc1ccc2c3c1O[C@H]1c4[nH]c5c(c4C[C@@]4(O)[C@@H](C2)N(CC2CC2)CC[C@]314)C[C@@]1(O)[C@H]2Cc3ccc(O)c4c3[C@@]1(CCN2CC1CC1)[C@H]5O4 [nor-BNI, nor-binaltorphimine]
duration of analgesic effects, mu- or kappa-antagonist cotreatment with rolipram: > 4 h

COc1ccc(C2CNC(=O)C2)cc1OC1CCCC1 (stereo not shown) [rolipram]
duration of hyperalgesia evoked by acute relatively low dose, agent alone: 4 to 5 h

COC(=O)/C=C/C(=O)N[C@@H]1CC[C@@]2(O)[C@H]3Cc4ccc(O)c5c4[C@@]2(CCN3CC2CC2)[C@H]1O5 [β-FNA, β-funaltrexamine]
duration of analgesic effects, mu- or kappa-antagonist cotreatment with rolipram: > 4 h
